{"source": "paper PMC7735645", "about": "(Journal of the American Chemical Society, 2019)", "test_system": "A549 cells", "test": "24 h IC50", "type": "cell-based", "conditions": "read-out: 24 h IC50 value, Table S1"}
{"smiles": "N.N.[Cl][Pt][Cl]", "note": "[compound 1, cisplatin, reference compound]", "values": [{"measurement": "IC50", "value": 12.8, "unit": "µM"}]}
